From publication PMC11849849
Results are given in words; binding and its absence hold for the method and conditions named. Binding seen in cells or lysates may run through a third protein. A yes stands for co-enrichment or nearness to the bait. Other partners may have been found.

B1: tRNA(Ile)-lysidine synthase (enzyme, UniProt Q9HXZ3 1-442)
chain: MPAVPLESRLLQALAPWREAGGWCVAFSGGLDSTVLLHLLAQLARSEALPALSALHVHHGLQAAADGWPAHCQAVCRSLGIPLRVERVQVAVGGSIEQAARDARYRAFQANLGEGQVLLTAQHLDDQAETLLFRLLRGAGLRGLAAMPASRPLGGGRLCRPLLGVSRAELEAYAQAHRLDWVEDPSNQDPRFSRNYLRREIMPRLASHWPQAVAGMARCAAHLREAEDLLAELAAIDLRACRQPSELDWPDWLDLPRIALEPLRRLSAARQRNLLRAWLGQLTRLPDSDHWAGWESLRDAGDDADPIWRLESGELRRGAGRIWWLPADWRAAAGPFVWERPAHPLLLPGNGRLALLGEVPAGPLRVDYRRGGEVLALAGRGRRDLKRLLNEAGVPSFLRGRLPLLFRADELLAVANIPGLDSPREGGWRLSWSPPTNDPGLS
B2: Acyl-homoserine lactone acylase PvdQ (enzyme, UniProt Q9I194 24-762)
chain: DMPRPTGLAADIRWTAYGVPHIRAKDERGLGYGIGYAYARDNACLLAEEIVTARGERARYFGSEGKSSAELDNLPSDIFYAWLNQPEALQAFWQAQTPAVRQLLEGYAAGFNRFLREADGKTTSCLGQPWLRAIATDDLLRLTRRLLVEGGVGQFADALVAAAPPGAEKVALSGEQAFQVAEQRRQRFRLERGSNAIAVGSERSADGKGMLLANPHFPWNGAMRFYQMHLTIPGRLDVMGASLPGLPVVNIGFSRHLAWTHTVDTSSHFTLYRLALDPKDPRRYLVDGRSLPLEEKSVAIEVRGADGKLSRVEHKVYQSIYGPLVVWPGKLDWNRSEAYALRDANLENTRVLQQWYSINQASDVADLRRRVEALQGIPWVNTLAADEQGNALYMNQSVVPYLKPELIPACAIPQLVAEGLPALQGQDSRCAWSRDPAAAQAGITPAAQLPVLLRRDFVQNSNDSAWLTNPASPLQGFSPLVSQEKPIGPRARYALSRLQGKQPLEAKTLEEMVTANHVFSADQVLPDLLRLCRDNQGEKSLARACAALAQWDRGANLDSGSGFVYFQRFMQRFAELDGAWKEPFDAQRPLDTPQGIALDRPQVATQVRQALADAAAEVEKSGIPDGARWGDLQVSTRGQERIAIPGGDGHFGVYNAIQSVRKGDHLEVVGGTSYIQLVTFPEEGPKARGLLAFSQSSDPRSPHYRDQTELFSRQQWQTLPFSDRQIDADPQLQRLSIRE
B3: 50S ribosomal protein L28 (protein, UniProt Q9HTN8 1-78)
chain: MSRVCQVTGKGPVTGNNISHAHNKTRRRFLPNLQHHRFWVESEKRFVRLRVSAKGMRIIDKRGIEAVLADLRARGEKF
B4: Probable dehydrogenase (enzyme, UniProt Q9HWU9 1-229)
chain: MHNVLIVGASRGIGLGLADAFLQRGAQVFAVARRPQGSPGLQALAERAGERLQAVTGDLNQHDCAERIGEMLGERRIDRLIVNAGIYGPQQQDVAEIDAEQTAQLFLTNAIAPLRLARALSGRVSRGGVVAFMSSQMASLALGLSATMPLYGASKAALNSLVRSWEGEFEELPFSLLLLHPGWVRTEMGGDSAPLSVEESAAGLVAAVEDAAGVNACRFVDYRNQPLPW
B5: DNA-binding protein HU-beta (protein, UniProt P05384 1-90)
chain: MNKSELIDAIAASADIPKAVAGRALDAVIESVTGALKAGDSVVLVGFGTFAVKERAARTGRNPQTGKPIKIAAAKIPGFKAGKALKDAVN
B6: Alpha-2-macroglobulin homolog (protein, UniProt Q9HVT2 27-1516)
chain: EDTVEPSGYTPMAGESFFLLADSSFATDEEARVRLEAPGRDYRRYRMEPYGGVDVRLYRIEQPLEFLKRQKNLHRVLAEGQFKGEGLSNTLAYLWDNWYRKSRRVMQRAFSYESRQQVTEAVPELKMGNAMTAPTPYDAQPQYAPIPGLPLVSQFRYPLWDAKPIEPPQDVKLAGSSSEFINVVPGNVYIPLGKLKPGLYLVEALVGKYRATTVVFVSNSVAVSKVAGDELLVWTARKHEGTPVPDTKVLWTDGLGVMSSGNTDADGLLRLKHASPERSYVIGEDREGGVFVSENFYYDSEIYDTKIYAFTDRPLYRPGDWVSLKMVGREFKDARQSQAAASAPVRLSVIDASGTVLQSLDLRFDAKSGANGRFQLPENAVAGGYELRFDYRGQTYSSAFRVAEYIKPHFEVALDLAKPDFKTAEPVKGEIVLLYPDGKPVANARLQLSLRAQQLSMVDNELQYLGQFPVELSSTELTTDGKGRAAIELPPAEKPSRYMLTIFASDGAAYRVKTSKEILIERGAARYRLSAPQRFSAAGEKVEFSYASEQPTPLKPSSYQWIRLEDRATDSGPVADGRFALTFERPGTYSVELRDDKGQLLGATGHSVSGEGVKSVPGTVEVVFDKPEYRTGEEASALITFPEPVEDALLSLERDKVEATALLSKGADWLRLEKLNPTQYRVWIPVREEFSPNLTFSVLYTKGGDYSFQNAGIKVGMPQVEIDIATDKERYEPGETVTVTLATRFAGKPVSSHLTVSVVDEMVYALQAEIAPGIDQFFYHPRRNNVRTSASLAFISYDVALPGSTSAPGRANRSERGVKVLERPRREDVDTAAWQPELVTDAQGKASFSFRMPDSLTRWRITARAIDDNGQVGQKKQFLRSEKPLYLKWSGPTRFRQGDQPDLGLFVFNQGEQPVKAELLSGPPGSQRSQTLELAKGVNYIPLAQQPLSDGDWSAELRQDGQVRDRLAVRFNLLADGWQVEQMQNLSLAAASNPLQLPADARDVRLRLADGPAAAYLGNLDDLLEYPYGGVEQTASQLLPLSIAYPALAGGEPRIRDRLRLIMQNSRLRLVQMAGPDAWFAWWGGDVDGDAFLTAYAYYADWYASRALEIQLPAEHWQRILEPYAKQATQTPLLQRALILAFARDMQLPVNTLLGGLLNDLANAGEGQARAEPLEADDGLVLGDPDSAVGLAAARVLAVDLARQLRVAVPAPLAAQAETATQRLREAGLPFTDALLASRSAVDGQQASALLQRLAPAQSTLERALALTWLQGALAQAPQGKLPQPPKDWQAQRGASGETYWQWRGRGIPSWVDLDEAPARPLPVALSYRSAQAPSGQLPVQISRRLLRLVPGEGAFEFKVEEVGDKPLSSDELYLDEVTLNVPEDTALRYGMLELPLPPGADVERTTWGIKISGLAGDEATTLERARNEPGELFYGVPVDSLSGEQRFRHLVRFSQKGSFNLPPARYLRLYAPEQQALEAKPALAKVKVE
B7: Stringent starvation protein B (protein, UniProt Q9HVY8 1-135)
chain: MNSSRPYLVRALYEWIVDNDCTPHILVNAEFAGVKVPPGYASDGQIVLNVSPSAVRHLHMDNEAVSFEGRFGGVAQSLYIPALAVMAIYARENGQGMVFDLEQPGPVDDEPGDDDGGPSDEPPRPSGRPSLKVVK
B8: Probable transcriptional regulator (Q9I2Y0) (protein, UniProt Q9I2Y0 1-901)
chain: MDAVQDPAAGSLSRSRIVPPQVPAEYSLRPAIRNLLDRNPHSRVLMFSAPAGFGKTCALAALARERTVADQAVAWLSLAEEDDDPARFCRQLIEALGEAVPQLGDDAQTYLQNTMRVPVVAVIESLLGDLDRYARPLLLVLDDLHLVSNPDIFTGLNRLVQYAPPGLVLALGTRSQPALSLATWRAKGLLLEIGLEELRLGFEETREYLERSGLYLDEPCLKALYGQTEGWVVGVHLVSLWLRQQPQVQEMALLDGDKQAVSAYLLAAVFERLPGDLQEALLALGVASQLSGDLANALTGRQDGQALLERLESMQLFLLPLDRERQWYRFHLLFADFLRNRLRDSDPDRFKQLHFNASLWFTNHHMPTFAIEHACAAEDPEMIAALVDGCGLELINRGQLSLIYRWRKHVPDEIAERYPILVLTDVWSRASDLSLGEANRIIDELLARWGESRGDGPMGDQYLSALAVKAVVALQKDDLELCIALARRVEVQLGQNAAFLEVAVLITAALAQVVRGQGDQARRLLGLAQQRNHFLEGRYLDMQLANVEVILALEQGQVKQAQLLIERLRQRARPLFEKSRSALALPTITEALTAYYRIELDGLEERLGWALGHVDVINPIDFYAQGQICLARTQRLLGRPKEALASLAAMQALASRNQSWRFFAQAMAEEINLILQDSGPDRLKRAEQRLKSVDWNKMAAHYRNMAFNPVNWSLGVSRVRLLQGRGHFSEALHEITQLRGTLQPGWHGLQRLRLDILAALSYQRLGYQERANSLLGECLINAEREGVRSLFIEEGDGIRQLLQQLESTERQPALQTFIRGLLGIWPGQGVRKPQDALEEGLTEREREVVCLAAQGLSNEEIGQRLSLALGTVKWHLHNIYEKLKVRNRTQAIRRARELSLL
B9: 50S ribosomal protein L22 (protein, UniProt Q9HWE0 1-110)
chain: MEVAAKLSGARISAQKARLVADQIRGKKVGEALNLLAFSSKKAAEIMKKVLESAVANAEHNEGADVDDLKVSTVFVNEGRSLKRIMPRAKGRADRIVKRSCHITVKVADK
B10: Probable transcriptional regulator (Q9I6N6) (protein, UniProt Q9I6N6 1-158)
chain: MTGPMTETNALGLPQGPLYLMTEIVRQRERQLTALLAPLELGLHEWRALRIIHAFDGDVPMSVLIEHSQTDRTALGRTIERLVRRGWVSRLPDPDDGRAVLVRRSPAAQAVFEQALAQVAGLDERLLAGLGSGPEEEALTLVLGKLLRAFDGLSRVRQ

The binders below were run against gp335-sfGFP (Pseudomonas phage Churi) (assay: affinity purification with mass spectrometry; gp335-sfGFP as bait expressed in P. aeruginosa PAO1 (0.4% arabinose); lysate precleared with protein A beads; anti-GFP antibody (Chromotek) 16 h at 8°C, then protein A beads 3 h at 25°C; washes with 1x PBS + 0.1% Tween 20 and 1x PBS; on-bead digestion, LC-MS/MS; proteins pulled down with sfGFP alone subtracted).

Binder | binding
B1 | binds
B2 | binds
B3 | binds
B4 | binds
B5 | binds
B6 | binds
B7 | binds
B8 | binds
B9 | binds
B10 | binds
